Protein sequences, listed by entry. Tags and fused reporters are not part of them. Lines headed by an entry give the natural chain unless they say otherwise; changes in a name come on top.
UniProt Q80Y81: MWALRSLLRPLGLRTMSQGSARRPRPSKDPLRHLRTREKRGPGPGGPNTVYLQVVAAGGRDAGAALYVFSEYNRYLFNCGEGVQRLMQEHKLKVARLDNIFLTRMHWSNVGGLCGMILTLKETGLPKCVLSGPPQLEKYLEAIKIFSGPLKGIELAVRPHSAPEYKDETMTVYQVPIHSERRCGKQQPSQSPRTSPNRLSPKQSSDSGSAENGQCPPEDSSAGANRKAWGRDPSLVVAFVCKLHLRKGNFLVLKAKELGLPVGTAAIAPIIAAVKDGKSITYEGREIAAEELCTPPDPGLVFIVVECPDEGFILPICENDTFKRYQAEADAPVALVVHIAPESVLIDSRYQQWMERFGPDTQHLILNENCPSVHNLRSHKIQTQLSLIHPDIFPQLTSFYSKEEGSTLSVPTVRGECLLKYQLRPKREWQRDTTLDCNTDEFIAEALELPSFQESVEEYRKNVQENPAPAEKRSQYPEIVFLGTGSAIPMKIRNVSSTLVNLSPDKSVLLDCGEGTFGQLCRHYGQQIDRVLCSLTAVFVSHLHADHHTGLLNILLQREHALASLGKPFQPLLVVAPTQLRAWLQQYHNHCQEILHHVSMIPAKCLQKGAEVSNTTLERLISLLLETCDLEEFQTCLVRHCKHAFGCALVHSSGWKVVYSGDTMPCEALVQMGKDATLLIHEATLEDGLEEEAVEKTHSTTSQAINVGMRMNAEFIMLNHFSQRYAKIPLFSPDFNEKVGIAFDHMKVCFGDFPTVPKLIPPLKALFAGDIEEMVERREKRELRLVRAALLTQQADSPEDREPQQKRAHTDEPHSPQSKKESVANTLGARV
UniProt Q811U4: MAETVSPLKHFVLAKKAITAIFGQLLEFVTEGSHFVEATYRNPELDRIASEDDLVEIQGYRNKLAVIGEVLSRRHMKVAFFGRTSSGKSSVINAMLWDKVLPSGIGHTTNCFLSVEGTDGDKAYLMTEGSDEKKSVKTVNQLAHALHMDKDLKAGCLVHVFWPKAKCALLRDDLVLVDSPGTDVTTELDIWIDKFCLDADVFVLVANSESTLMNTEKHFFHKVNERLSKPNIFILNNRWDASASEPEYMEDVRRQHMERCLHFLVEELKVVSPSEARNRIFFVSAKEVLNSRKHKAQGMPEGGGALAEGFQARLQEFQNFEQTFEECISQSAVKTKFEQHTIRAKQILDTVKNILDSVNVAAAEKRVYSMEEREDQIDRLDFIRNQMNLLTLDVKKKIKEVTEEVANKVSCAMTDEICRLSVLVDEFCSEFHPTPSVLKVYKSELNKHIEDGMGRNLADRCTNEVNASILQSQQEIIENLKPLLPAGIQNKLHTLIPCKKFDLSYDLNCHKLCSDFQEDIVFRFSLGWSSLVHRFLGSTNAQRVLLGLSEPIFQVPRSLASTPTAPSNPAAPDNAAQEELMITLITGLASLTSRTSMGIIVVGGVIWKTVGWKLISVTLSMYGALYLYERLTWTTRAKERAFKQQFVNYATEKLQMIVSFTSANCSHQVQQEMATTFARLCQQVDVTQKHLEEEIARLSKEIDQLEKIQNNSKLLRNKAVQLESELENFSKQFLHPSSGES
UniProt Q810L3: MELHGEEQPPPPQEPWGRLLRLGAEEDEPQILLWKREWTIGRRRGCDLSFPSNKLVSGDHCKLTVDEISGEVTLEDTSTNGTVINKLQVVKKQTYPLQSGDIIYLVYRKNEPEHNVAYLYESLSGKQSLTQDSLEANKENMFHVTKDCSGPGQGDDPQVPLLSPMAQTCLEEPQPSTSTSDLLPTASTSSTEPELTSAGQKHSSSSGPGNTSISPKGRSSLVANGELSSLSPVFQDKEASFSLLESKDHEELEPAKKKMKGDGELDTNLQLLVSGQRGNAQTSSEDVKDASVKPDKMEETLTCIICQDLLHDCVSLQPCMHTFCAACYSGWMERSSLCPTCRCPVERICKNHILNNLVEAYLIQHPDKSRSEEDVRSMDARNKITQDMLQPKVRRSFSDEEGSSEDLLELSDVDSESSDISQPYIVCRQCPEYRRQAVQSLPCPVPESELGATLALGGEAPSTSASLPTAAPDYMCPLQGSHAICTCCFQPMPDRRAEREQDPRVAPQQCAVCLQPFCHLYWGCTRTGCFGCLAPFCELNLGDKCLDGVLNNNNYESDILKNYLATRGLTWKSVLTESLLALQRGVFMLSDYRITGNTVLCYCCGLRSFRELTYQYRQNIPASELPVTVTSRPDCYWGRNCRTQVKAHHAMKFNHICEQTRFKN
UniProt Q80W21: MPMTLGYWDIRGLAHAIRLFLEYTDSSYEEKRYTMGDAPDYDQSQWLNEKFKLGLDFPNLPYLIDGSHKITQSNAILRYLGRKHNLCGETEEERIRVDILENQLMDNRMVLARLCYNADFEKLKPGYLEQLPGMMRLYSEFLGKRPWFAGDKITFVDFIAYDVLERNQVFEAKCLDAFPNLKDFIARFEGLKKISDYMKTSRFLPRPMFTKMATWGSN
UniProt Q80XD1: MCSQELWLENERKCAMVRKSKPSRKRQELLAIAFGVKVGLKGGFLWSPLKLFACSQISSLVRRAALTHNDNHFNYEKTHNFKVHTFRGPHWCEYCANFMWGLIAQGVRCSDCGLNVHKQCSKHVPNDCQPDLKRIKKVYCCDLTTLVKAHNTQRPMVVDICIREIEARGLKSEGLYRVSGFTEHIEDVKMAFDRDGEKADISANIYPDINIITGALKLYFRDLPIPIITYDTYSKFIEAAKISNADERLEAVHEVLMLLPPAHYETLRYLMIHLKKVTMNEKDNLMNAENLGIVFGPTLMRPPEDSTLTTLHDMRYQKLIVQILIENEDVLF
UniProt Q80X85: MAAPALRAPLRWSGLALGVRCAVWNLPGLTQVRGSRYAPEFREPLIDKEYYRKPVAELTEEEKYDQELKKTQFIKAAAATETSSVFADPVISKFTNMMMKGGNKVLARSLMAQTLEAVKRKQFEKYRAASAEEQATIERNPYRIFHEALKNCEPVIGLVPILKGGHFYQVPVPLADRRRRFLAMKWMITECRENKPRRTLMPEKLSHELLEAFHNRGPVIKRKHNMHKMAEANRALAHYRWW
UniProt Q8BGG9: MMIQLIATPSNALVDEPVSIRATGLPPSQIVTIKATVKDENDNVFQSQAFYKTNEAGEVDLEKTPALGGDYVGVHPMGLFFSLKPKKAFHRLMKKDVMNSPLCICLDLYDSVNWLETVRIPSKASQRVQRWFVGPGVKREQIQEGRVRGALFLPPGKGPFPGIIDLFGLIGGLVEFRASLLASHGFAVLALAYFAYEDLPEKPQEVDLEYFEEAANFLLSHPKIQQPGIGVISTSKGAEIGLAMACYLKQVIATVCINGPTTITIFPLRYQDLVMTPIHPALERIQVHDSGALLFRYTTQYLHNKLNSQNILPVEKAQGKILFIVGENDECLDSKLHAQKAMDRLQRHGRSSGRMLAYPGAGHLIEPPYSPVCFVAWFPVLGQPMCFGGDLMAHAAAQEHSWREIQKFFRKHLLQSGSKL
UniProt Q8BH55: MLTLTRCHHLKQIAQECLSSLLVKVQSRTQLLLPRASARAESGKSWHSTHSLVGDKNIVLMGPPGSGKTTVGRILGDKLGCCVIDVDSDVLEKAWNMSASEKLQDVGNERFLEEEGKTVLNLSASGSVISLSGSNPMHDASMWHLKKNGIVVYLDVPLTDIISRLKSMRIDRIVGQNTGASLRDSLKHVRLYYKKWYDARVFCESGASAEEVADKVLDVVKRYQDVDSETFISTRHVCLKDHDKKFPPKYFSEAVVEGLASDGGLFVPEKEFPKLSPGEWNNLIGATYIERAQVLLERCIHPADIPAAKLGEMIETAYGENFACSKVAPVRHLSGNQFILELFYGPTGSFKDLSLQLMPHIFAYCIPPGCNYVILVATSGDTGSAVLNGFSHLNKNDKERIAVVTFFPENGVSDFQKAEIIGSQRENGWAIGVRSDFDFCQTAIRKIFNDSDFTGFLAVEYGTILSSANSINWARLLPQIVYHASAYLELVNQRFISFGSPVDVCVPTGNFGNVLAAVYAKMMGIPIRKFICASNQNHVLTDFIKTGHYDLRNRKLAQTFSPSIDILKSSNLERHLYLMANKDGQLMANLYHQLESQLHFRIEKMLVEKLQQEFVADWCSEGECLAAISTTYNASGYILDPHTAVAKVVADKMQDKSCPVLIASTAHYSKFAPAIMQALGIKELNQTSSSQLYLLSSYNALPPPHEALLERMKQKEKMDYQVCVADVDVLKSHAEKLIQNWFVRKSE
UniProt Q80YR9: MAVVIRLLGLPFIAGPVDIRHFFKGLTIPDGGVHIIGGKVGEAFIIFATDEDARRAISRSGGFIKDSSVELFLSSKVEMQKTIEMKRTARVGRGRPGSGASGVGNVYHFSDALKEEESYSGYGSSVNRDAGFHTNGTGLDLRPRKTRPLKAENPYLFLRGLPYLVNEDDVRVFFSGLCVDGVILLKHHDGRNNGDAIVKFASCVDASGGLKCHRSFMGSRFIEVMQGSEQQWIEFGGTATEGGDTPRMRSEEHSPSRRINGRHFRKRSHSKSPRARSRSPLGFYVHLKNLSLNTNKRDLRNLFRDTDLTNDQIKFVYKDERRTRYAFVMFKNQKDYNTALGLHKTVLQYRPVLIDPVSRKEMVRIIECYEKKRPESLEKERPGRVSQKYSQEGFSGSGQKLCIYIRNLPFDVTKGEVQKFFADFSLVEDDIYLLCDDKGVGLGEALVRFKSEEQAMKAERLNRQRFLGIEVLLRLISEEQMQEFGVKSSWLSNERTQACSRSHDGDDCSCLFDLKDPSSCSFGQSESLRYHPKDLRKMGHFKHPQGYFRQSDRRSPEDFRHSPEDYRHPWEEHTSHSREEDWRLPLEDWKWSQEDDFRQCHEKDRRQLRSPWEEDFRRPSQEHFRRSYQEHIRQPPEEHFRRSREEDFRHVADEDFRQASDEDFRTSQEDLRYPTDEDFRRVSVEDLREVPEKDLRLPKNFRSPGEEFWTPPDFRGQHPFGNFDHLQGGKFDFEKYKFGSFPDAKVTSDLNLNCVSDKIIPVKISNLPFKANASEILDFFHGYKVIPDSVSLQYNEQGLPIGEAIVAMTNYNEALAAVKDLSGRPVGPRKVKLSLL
UniProt Q8BFX1: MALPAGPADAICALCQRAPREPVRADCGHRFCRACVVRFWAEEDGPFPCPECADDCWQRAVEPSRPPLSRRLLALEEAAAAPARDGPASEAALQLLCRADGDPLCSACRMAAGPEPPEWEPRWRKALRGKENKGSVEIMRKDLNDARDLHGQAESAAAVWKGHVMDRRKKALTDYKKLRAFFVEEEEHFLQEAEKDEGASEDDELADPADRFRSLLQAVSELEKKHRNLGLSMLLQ
UniProt Q8BGG7, whole entry: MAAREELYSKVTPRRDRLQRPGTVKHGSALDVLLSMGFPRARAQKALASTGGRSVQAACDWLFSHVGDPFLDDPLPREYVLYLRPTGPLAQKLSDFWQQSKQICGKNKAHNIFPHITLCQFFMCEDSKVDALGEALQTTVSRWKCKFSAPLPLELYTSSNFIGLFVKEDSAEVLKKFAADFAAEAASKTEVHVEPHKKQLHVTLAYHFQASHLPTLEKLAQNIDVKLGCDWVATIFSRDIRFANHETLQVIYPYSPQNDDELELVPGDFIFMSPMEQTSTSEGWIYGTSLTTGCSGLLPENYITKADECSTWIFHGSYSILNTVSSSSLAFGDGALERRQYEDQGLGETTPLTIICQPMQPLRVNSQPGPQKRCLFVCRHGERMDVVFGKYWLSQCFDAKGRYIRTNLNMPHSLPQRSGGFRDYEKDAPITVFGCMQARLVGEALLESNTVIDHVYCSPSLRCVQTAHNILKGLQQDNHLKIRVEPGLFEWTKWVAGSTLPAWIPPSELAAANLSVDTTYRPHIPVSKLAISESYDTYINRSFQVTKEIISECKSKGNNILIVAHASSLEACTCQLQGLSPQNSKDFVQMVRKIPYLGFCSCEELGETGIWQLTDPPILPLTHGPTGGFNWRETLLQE
UniProt Q8BGI3: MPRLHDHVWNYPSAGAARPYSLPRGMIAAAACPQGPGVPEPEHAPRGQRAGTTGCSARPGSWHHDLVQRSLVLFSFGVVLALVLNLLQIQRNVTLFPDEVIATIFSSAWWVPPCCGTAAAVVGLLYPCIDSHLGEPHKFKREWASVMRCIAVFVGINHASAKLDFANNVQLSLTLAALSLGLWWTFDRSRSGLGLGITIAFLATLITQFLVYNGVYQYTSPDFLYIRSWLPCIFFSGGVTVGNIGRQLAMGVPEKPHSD
UniProt Q80XP8: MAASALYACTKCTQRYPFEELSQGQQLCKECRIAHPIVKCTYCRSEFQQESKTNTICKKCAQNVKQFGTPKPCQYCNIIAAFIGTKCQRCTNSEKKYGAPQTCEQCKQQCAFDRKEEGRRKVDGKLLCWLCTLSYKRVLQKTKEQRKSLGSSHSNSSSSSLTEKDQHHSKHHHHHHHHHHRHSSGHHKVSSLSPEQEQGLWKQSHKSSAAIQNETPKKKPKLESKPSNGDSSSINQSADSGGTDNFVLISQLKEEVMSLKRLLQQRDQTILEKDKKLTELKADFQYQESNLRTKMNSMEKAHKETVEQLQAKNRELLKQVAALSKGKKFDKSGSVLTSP

The other results are listed elsewhere or left out. Small differences around the control level are noise.
The targets below were run with CN[C@@H]1C[C@H]2O[C@@](C)([C@@H]1OC)n1c3ccccc3c3c4c(c5c6ccccc6n2c5c31)C(=O)NC4 [staurosporine] (assay: log2 fold change of tryptic peptide abundance, ligand vs vehicle (limited proteolysis) (log2 ratio); higher = more trypsin-susceptible (destabilized)). Settings: ligand concentration: 20 uM; sample: mouse liver crude lysate; replicate design: treated separately.
Target “UniProt Q80Y81 (peptide sequence: NVQENPAPAEKR, peptide start residue: 462)” has a log2 fold change of 0.9.
Target “UniProt Q811I0 (peptide sequence: QSDFIKCMEQK, peptide start residue: 111)” has a log2 fold change of 0.189.
“UniProt Q811U4 (peptide sequence: VYKSELNKHIEDGMGR, peptide start residue: 440)” showed a log2 fold change of -1.02.
Work on “UniProt Q810L3 (peptide sequence: NKITQDMLQPK, peptide start residue: 382)” yielded a log2 fold change of -0.344.
With “UniProt Q80W21 (peptide sequence: LCYNADFEK, peptide start residue: 114)” the log2 fold change was -0.466.
For “UniProt Q80XD1 (peptide sequence: CSDCGLNVHKQCSK, peptide start residue: 109)”, the log2 fold change was -0.25.
With “UniProt Q8BHT7 (peptide sequence: GTGVAPSVSHVTHAR, peptide start residue: 274)” the log2 fold change was -0.486.
“UniProt Q80Y83 (peptide sequence: SLTPFMVNIPK, peptide start residue: 638)” showed a log2 fold change of -0.193.
With “UniProt Q8BG60 (peptide sequence: HTYLANGQTK, peptide start residue: 220)” the log2 fold change was -0.291.
Target “UniProt Q80X85 (peptide sequence: SLMAQTLEAVKR, peptide start residue: 109)” has a log2 fold change of 0.255.
“UniProt Q8BGG9 (peptide sequence: YTTQYLHNK, peptide start residue: 297)” gave a log2 fold change of 0.143.
Target “UniProt Q8BH55 (peptide sequence: NIVLMGPPGSGK, peptide start residue: 57)” has a log2 fold change of -0.13.
“UniProt Q80X80 (peptide sequence: QVCPLTPGPGK, peptide start residue: 383)” gave a log2 fold change of 0.3.
With “UniProt Q8BG32 (peptide sequence: ALLVEVQLLESK, peptide start residue: 164)” the log2 fold change was 0.896.
“UniProt Q80YR9 (peptide sequence: GQHPFGNFDHLQGGKFDFEK, peptide start residue: 716)” gave a log2 fold change of 0.313.
“UniProt Q8BG40 (peptide sequence: KGHDTMFVVLTSR, peptide start residue: 496)” showed a log2 fold change of 0.139.
With “UniProt Q80Y20 (peptide sequence: KVPNSELPIHINR, peptide start residue: 572)” the log2 fold change was 0.28.
With “UniProt Q80VL1 (peptide sequence: REEVTEPGGAGEAALWK, peptide start residue: 222)” the log2 fold change was -0.216.
“UniProt Q80WT5 (peptide sequence: YQWGGSHSNKK, peptide start residue: 712)” gave a log2 fold change of -0.196.
With “UniProt Q8BFX1 (peptide sequence: ADGDPLCSACR, peptide start residue: 99)” the log2 fold change was 0.0995.
“UniProt Q8BGG7 (peptide sequence: LQRPGTVK, peptide start residue: 18)” was tested, and the log2 fold change was -0.187.
“UniProt Q80WC7 (peptide sequence: WYVPPEQVK, peptide start residue: 144)” gave a log2 fold change of -0.346.
“UniProt Q8BGV8 (peptide sequence: LLNKDMK, peptide start residue: 82)” was tested, and the log2 fold change was -0.312.
“UniProt Q8BGI3 (peptide sequence: QLAMGVPEKPHSD, peptide start residue: 247)” was tested, and the log2 fold change was -0.24.
“UniProt Q80XP8 (peptide sequence: LLCWLCTLSYKR, peptide start residue: 123)” showed a log2 fold change of -0.17.
